In patent US20200199202A1:
No constants are given. Whether binding was seen depends on the method and setting. Some entries that bind do so weakly or less than the wild type.

By UniProt entry, the sequences of proteins in these tests, tags left out. Where a name states a change or a piece, a line headed by the entry shows the natural chain unless it says otherwise.
UniProt O15118: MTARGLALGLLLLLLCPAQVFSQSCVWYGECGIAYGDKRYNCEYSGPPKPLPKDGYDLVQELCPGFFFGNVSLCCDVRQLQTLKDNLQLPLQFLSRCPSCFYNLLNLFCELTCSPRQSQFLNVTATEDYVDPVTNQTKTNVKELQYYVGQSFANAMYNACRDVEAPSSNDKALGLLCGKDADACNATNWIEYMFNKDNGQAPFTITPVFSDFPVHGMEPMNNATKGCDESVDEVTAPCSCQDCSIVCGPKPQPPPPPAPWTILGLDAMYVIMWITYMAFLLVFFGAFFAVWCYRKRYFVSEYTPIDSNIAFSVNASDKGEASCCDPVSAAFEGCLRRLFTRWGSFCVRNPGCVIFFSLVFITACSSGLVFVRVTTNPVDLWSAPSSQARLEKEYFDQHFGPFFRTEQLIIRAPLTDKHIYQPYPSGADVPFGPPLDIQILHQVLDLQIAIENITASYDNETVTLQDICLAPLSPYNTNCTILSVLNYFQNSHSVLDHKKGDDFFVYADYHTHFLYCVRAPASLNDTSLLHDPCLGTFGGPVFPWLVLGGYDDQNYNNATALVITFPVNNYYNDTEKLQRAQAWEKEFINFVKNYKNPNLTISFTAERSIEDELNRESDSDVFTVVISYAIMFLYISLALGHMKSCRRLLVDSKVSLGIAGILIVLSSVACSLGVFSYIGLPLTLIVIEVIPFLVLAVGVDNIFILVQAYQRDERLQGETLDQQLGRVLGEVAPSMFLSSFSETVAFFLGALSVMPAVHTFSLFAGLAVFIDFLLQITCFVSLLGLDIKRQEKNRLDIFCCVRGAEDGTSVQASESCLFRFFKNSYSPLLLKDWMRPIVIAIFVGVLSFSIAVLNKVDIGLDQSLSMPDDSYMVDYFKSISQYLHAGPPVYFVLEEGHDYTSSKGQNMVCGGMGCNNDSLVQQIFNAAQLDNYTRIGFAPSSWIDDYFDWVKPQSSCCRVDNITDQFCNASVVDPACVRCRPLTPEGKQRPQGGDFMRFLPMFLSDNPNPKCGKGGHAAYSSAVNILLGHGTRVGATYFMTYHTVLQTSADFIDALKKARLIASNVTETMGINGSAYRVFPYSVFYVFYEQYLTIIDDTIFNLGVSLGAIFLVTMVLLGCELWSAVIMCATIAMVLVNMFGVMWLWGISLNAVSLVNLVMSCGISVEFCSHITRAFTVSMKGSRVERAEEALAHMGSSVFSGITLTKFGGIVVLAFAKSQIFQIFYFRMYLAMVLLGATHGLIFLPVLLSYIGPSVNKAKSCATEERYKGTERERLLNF

Target: soluble human NPC1 domain C protein (human) (UniProt O15118)
Assay: BLI

B1: mAb 548 (anti-human NPC1 domain C monoclonal antibody) (antibody, V domains shown)
VH: EVQLQQSGAELVKPGASVKLSCTASGFNIKDTYMHWVKQRPEEGLEWIGRIDPADGNTEYVPKFQGKATITADTFSNTVYLQLSGLTSEDTAVYYCSRGYYWGQGTTLTVSS
VL: DIQMTQSPASLSASVGETVTITCRASENIYSYLAWYQQKQGKSPQLLVYNAKTLAEGVPSRFSGSGSGTQFSLKINSLQPEDFGIYYCQHHYGSPWAFGGGTKLEIK
For B1, the binding was “binds”.
